# Earlier results, collected in patent publication US11471478B2, “Use of cyclodextrins in diseases and disorders involving phospholipid dysregulation” (priority 2017, dated 2022).
# At least one read-out could not be matched to a standard name with certainty.
# Conditions: HP-cyclodextrins at 5% (w/w) in isotonic phosphate-buffered saline; cited from earlier work
structure (smiles),measurement,value
"CC(O)COC[C@H]1O[C@@H]2O[C@H]3[C@H](O)[C@@H](O)[C@@H](O[C@H]4[C@H](O)[C@@H](O)[C@@H](O[C@H]5[C@H](O)[C@@H](O)[C@@H](O[C@H]6[C@H](O)[C@@H](O)[C@@H](O[C@H]7[C@H](O)[C@@H](O)[C@@H](O[C@H]8[C@H](O)[C@@H](O)[C@@H](O[C@H]1[C@H](O)[C@H]2O)O[C@@H]8COCC(C)O)O[C@@H]7COCC(C)O)O[C@@H]6COCC(C)O)O[C@@H]5COCC(C)O)O[C@@H]4COCC(C)O)O[C@@H]3COCC(C)O (stereo partly drawn) [HP-β-CD, hydroxypropyl-beta-cyclodextrin]",solubilization of pure lipids,preferentially solubilized cholesterol
